For one data set, the system named is DOCA hypertensive rats. The data set is described as follows: Aneurysm formation in the mesenteric artery of DOCA hypertensive rats. Particulars: 7 weeks; for Arteriole count, Avg: 6 rats; for Arteriole count, individual rats: counted thrice, average. In kind it is in vivo, rat. The text has this:
The compounds of the present invention show an effect of inhibiting periarteritis nodosa in a malignant hypertension model rat in which periarteritis nodosa arises in the mesenteric artery and progresses into aneurysm. Among aneurysms, those formed in the mesenteric artery can be treated quantitatively. Thus, the mesenteric artery was taken out and fixed with formalin. Then it was fat-stained and arterioles and aneurysms were counted thrice and the average aneurysm count per arteriole was calculated. To rats with renal hypofunction due to the excision of one kidney, […] saline, having a somewhat higher osmotic pressure than plasma, was given as drinking water and 10 mg/kg of deoxycorticosterone acetate (DOCA) (a mineral corticoid) was subcutaneously administered at intervals of 1 week. Twenty-four male Wistar rats were divided into 4 groups at random. After taking out the left kidney, each animal was allowed to stand and the operative wound was fused. […] The experiment was carried out for 7 weeks. Since the initiation of the experiment, the feed intake, water intake, urine, body weight and blood pressure of each group were measured once every three days.
The average blood pressure exceeded 180 mmHg in the 3rd week and attained 200 mmHg in the 4th week. […] In the 7th week, each animal was dissected and the mesenteric artery was taken out. After treating with formalin, the artery was fat-stained and aneurysms were counted. […] In the high-dose Compound-6 group, the average aneurysm count per arteriole was lowered to 0.27±0.05.
Arterioles and nodes in the mesenteric artery were each counted thrice and the average was calculated.
a) Appearance frequency=node count/arteriole count×100 (%).

Data set [1] deals with rats with adjuvant arthritis. The data set is described as follows: Therapeutic effect on rat adjuvant arthritis. In kind it is in vivo. Particulars: 7 times. The method, then:
Rats with arthritis employed in Experiment 1 were individuals which suffered from serious arthritis caused by the injection of an adjuvant 45 days ago and thus crawled on forelegs since they could not bend hind legs. Drug effects were evaluated by observing walking, observation with the naked eye of the severity of inflammation in hind legs and the volume of swelling in legs. To 19 SD male rats (weighing about 300 g), Freund's […] adjuvant containing dead tubercle bacillus Aoyama B strain was subcutaneously injected into the tail root to induce arthritis in hind legs. Compound-6 was suspended in a tragacanth gum solution and orally administered at a ratio of 0.5 ml/100 g body weight. Compound-6 was administered to 3 groups including the high-dose model (HM; 50 mg/kg), the medium-dose model (MM; 25 mg/kg) and the low-dose model (LM; 10 mg/kg). Administration was made once a day in morning continuously 7 times. During this period, the hind leg volume was measured at the initiation of the experiment and 2, 4 and 7 days thereafter. The volume change was calculated by referring the volume at the initiation of the experiment as to 100%. On the 7th day, the inflammation conditions in hind legs were evaluated in 5 grades with the naked eye.
Immediately after administration, the three Compound-6 groups were combined and divided again depending on the occurrence of arthritis (i.e., positive and negative groups). Then the data were compared with the data of the control group.

Where “and” joins values, the source holds several entries; their conditions need not be identical. Equal entries are not always repeated.

Turning to `COc1c(Cl)c(C)c(C=O)c(O)c1C/C=C(C)/C=C/[C@@]1(C)[C@H](C)CCC(=O)[C@@H]1C` [Compound-6, 4-O-methylASC], the “Arteriole count, Avg” value was 12.72 with DOCA hypertensive rats (10 mg/kg/day) and 12.78 with DOCA hypertensive rats (40 mg/kg/day). Also, the “Arteriole count, individual rats” value is 9.00 and 11.33 and 11.00 and 14.67 and 17.00 and 13.33 in the data set on DOCA hypertensive rats (10 mg/kg/day); 12.67 and 10.33 and 12.00 and 13.67 and 13.00 and 15.00 in the data set on DOCA hypertensive rats (40 mg/kg/day). For the same compound, the Body weight change in data set [1] (HM group, 50 mg/kg oral once a day) is 2.2 g/rat; in data set [1] (LM group, 10 mg/kg oral once a day), 2.0 g/rat; in data set [1] (MM group, 25 mg/kg oral once a day), 3.9 g/rat.

The values are drawn from patent US6605639B1, “Ligands of nuclear receptor” (Nuclear Receptor Research, Ltd., priority 1998, dated 2003).
